Publication PMC10163288
Some of the results follow.

B1: il2ra_site2_2erj_sap_16_mot_4b0744c440632e7b239d8b54ed7c44c2_0001_af2_000000182_0001_16_31_H_._HHH_b1_03906_0001_0000500049_0000001_0_0001 (protein)
chain: SSSSEEEELERLLEEIKELLEEGNLEEALRLLWEVMRLAFENNDWEVSRRVWRLWELLRELESSS
B2: il2ra_site2_3nfp_normal_mot_HHH_b1_03376_000000004_0001_41_55_H_._HHH_b1_07054_0002_0000100008_0000001_0_af2pred_0001_1_af2pred_swapped (protein)
chain: SSSSDVEERIEQLLEKAERILEEHKDPEEAHRIVAEAARLAWENNDQEAFSRVAELYLKIDSSSS
B3: il2ra_site2_2erj_sap_25_mot_66c2fca85847babee3b8944584cfd08f_0001_1_000000149_0001_16_30_H_._HHH_b1_00115_0001_0000300028_0000001_0_0001 (protein)
chain: SSSSNEELHELYKLAVELLRLTAEGDREEFEKLWEEAKELAERLDSENVEEILEFLRRRVSSSSS
B4: il2ra_site2_3nfp_sap_29_mot_HHH_b2_01508_000000034_0001_1_17_H_._HHH_b2_05744_0001_0000100007_0000001_0_0001 (protein)
chain: SSSSDERMLRLALEALEALARNGDDEMFEKAEEYLRAAIELYGDEEARELLEELVREFREKSSSS
B5: il2ra_site2_2erj_normal_mot_HHH_b1_05749_af2_000000086_0001_23_39_H_._HHH_b1_03988_af2_0001_0000100001_0000001_0 (protein)
chain: SSSSNEELRRLYELAVRILHLISEGDEERAQELIEELKELAERLDNLAVKELVEHLEELINSSSS
B6: il2ra_site2_2erj_sap_24_mot_ems_p1-14H-GABBL-16H-GABBL-15H_0014_0001_0001_0001_000000124_0001_40_55_H_._098064ffb003ae9d220488cec4d80c2b_0001_af2_0001_000030001 … (protein)
chain: SSSSDEEEERIEELAEEAERLDDLHRVYELLNEMTRIASRANNQELVELVARLLEEIAKKFSSSS
B7: il2ra_site1_3nfp_sap_15_mot_HHH_b1_05868_af2_000000129_0001_1_19_H_._HHH_b1_04163_af2_0001_0000300017_0000001_0_0001_af2pred_0001_af2pred (protein)
chain: SSSSSWREKAMEAILRAAELANDEELREELEKLLEKLREEGDPRALREAVKLLKEAAKRLSSSSS
B8: il2ra_site1_1z92_normal_mot_HHH_b1_00368_000000203_0001_23_39_H_._HHH_b1_01554_af2_0001_0000300020_0000001_0_af2pred_0001_af2pred_1 (protein)
chain: SSSSSDEKDAKMIVRLAVRAARLSEEQEEQLRELAEELVKRGYDFEEIARILDELALKLLSSSSS
B9: il2ra_site2_3nfp_sap_21_mot_HHH_b1_01767_000000280_0001_1_18_H_._HHH_b1_02336_0001_0000100003_0000001_1_0001_af2pred_0001_af2pred_1_swapped (protein)
chain: SSSSSEEEEEVERLLEKAKKIEDPEEAAEAVRKAATIAVEINNEELFMAAIRLLERLERGSSSSS
B10: il2ra_site1_1z92_normal_mot_73a3237f21306322153cb43486d2ff88_0001_1_af2_000000006_0001_34_49_H_._66959ead3e6c57cb3ef8243f3eb758e0_0001_1_0001_0000400058_0000001 … (protein)
chain: SELEQELLDAVRSKDEEALRELIQLLLRDTKDPELARQLLRILVKRLGLPEEVLERLLKLLDELA
B11: il2ra_site1_3nfp_normal_mot_HHH_b2_00857_af2_000000076_0001_1_16_H_._HHH_b1_07967_0001_0000100005_0000001_0_1_af2pred_0001_af2pred (protein)
chain: SSSSDVEEELKELLEELEELAKRRDIRRFNEVAKEIAKLVKENDDEEAWRLLRRILREAAGSSSS
B12: il2ra_site2_2erj_sap_15_mot_HHH_b2_06646_af2_000000081_0001_19_36_H_._HHH_b2_00405_0001_0000200009_0000001_0_0001 (protein)
chain: SSSSDDEVNRRILELARQALRVDKEEVEEIIEEMKELAEENNDEDAKAAAETLERYLRRLSSSSS
B13: il2ra_site2_3nfp_normal_mot_HHH_b1_00660_af2_000000199_0001_40_57_H_._HHH_b1_02274_0001_0000200005_0000001_1 (protein)
chain: SSSSDEEAEEEVEKARELFEEGNLEEARKVLAKAADLVYEAGDHELFAILNELLFKIIQRSSSSS
B14: il2ra_site1_2b5i_normal_mot_HHH_b1_06833_000000207_0001_1_19_H_._9b4a7537886aea0851cc58e6c1afe4dd_0001_1_0001_0000200018_0000001_0_af2pred_dldesign_0_af2pred (protein)
chain: DAEKVTALLREIGVPEEEIERVLELYEEYQAHPEDSEVLRRLVDLLYRLAKSPEVLKELNKLLSK
B15: il2ra_site2_2erj_sap_27_mot_HHH_b1_01129_af2_000000281_0001_18_33_H_._HHH_b1_00785_af2_0001_0000500007_0000001_0_0001 (protein)
chain: SSSDEEEEELEKLLEEVERLIKEGNPEEAAEVLNRATRLAMELHDAEVYERIIELYHLLDNSSSS
B16: il2ra_site1_1z92_sap_12_mot_b97f03aff7fbbdc090789c14133bd7a1_0001_1_000000018_0001_17_32_H_._86e43a77a489429e2f53cc35fed9f0aa_0001_1_0001_0000300026_0000001_0_0 … (protein)
chain: SSSSDRSEERVKMAIRDLKMRGDEEAVREVEEILEEAREKNDPRLFSEAARLAIEIQKEQSSSSS
B17: il2ra_site2_2erj_sap_27_mot_HHH_b1_07186_000000166_0001_43_57_H_._5dc92b74ccc7c8cc6eca4ada2eaf0777_0001_1_af2_0001_0000200013_0000001_0_0001 (protein)
chain: SSSSSDVEEEVRRLLEEAEELHKEGDLREVYRLAVEAMRLASENQDQELLELVAEVVKRLSSSSS
B18: il2ra_site1_3nfp_normal_mot_HHH_b2_02552_af2_000000235_0001_1_20_H_._HHH_b1_08742_af2_0001_0000200013_0000001_1_af2pred_0001_af2pred (protein)
chain: SSSSSEEAEELFEQAKREIEELLKNGNPNEAARVVDEAVRLLARLGNPELAERLLRFALKLSSSS

Each binder was assayed against il2ra, P01589 (assay: yeast display titration).

Apparent Kd, inactive:
B1 no binding seen
B2 no binding seen
B3 no binding seen
B4 no binding seen
B5 no binding seen
B6 no binding seen
B7 no binding seen
B8 no binding seen
B9 no binding seen
B10 no binding seen
B11 no binding seen
B12 no binding seen
B13 no binding seen
B14 no binding seen
B15 no binding seen
B16 no binding seen
B17 no binding seen
B18 no binding seen

A stretch from the list above:
Apparent Kd, inactive:
B8 no binding seen
B9 no binding seen
